Experimental data as given in patent US20250281480A1, “PHARMACEUTICAL DRY POWDER INHALATION FORMULATION” (Bayer Aktiengesellschaft, priority 2021, published 2025).
Several values for one entry are separate records, joined by “and”; a condition that tells them apart may be missing. Equal values may be shown once. Further values from the same series stand in other lists.

System: anesthetized PAH minipigs
Test: PAH minipig, intratracheal application of dry powder formulations and of different hydrates (PAP, BP)
Format: in vivo, Göttingen Minipigs
Settings: 375 μg/kg i.t., per animal
Procedure: Healthy Göttingen Minipigs® Ellegaard (Ellegaard, Denmark) of both sexes and having a weight of 2-6 kg were used. The animals were sedated by i.m. administration of about 25 mg/kg ketamine and about 10 mg/kg azaperone. Anaesthesia was initiated by i.v. administration of about 2 mg/kg ketamine and about 0.3 mg/kg midazolam. Maintenance of anaesthesia was by i.v. administration of about 7.5-30 mg/kg/h ketamine and about 1-4 mg/kg/h midazolam (rate of infusion 1-4 ml/kg/h) and about 150 μg/kg/h pancuronium bromide (for example Pancuronium-Actavis). After intubation, the animals were ventilated by the ventilator at a constant respiratory volume (10-12 ml/kg, 35 breaths/min; Avea®, Viasys Healthcare, USA, or Engström Carestation, GE Healthcare, Freiburg, Germany) such that an end-tidal CO2 concentration of about 5% was achieved. Ventilation was performed with room air, enriched with about 40% oxygen (normoxia). For the measurement of the haemodynamic parameters such as pulmonary arterial pressure (PAP), blood pressure (BP) and heart rate (HR), catheters were inserted into the carotid artery to measure the blood pressure, and a Swan-Ganz® catheter was introduced in a flow-directed manner via the jugular vein into the pulmonary artery. The haemodynamic signals were recorded and evaluated by means of pressure transducers (Combitransducer, B. Braun, Melsungen, Germany)/amplifiers and Ponemah® as data acquisition software.
About 0.3-0.75 μg/kg/min of 9,11-didesoxy-9α,11α-epoxymethanoprostaglandine F2α (U-44069; Sigma, cat. no. D0400, or Cayman Chemical Company, cat. no. 16440), dissolved in physiological saline, were infused to achieve an increase of the mean pulmonary arterial pressure to values of over 25 mmHg.
After characterization of the effects of comparative example 11 after nebulization of compound solutions, in a further step the effects of crystalline forms of comparative example 11, e.g. sesquihydrate, e.g. example 6e on PAP and BP after inhaled application of different dry powder lactose formulations (table 52) were studied in anesthetized PAH minipigs.
As reference pure Lactose vehicle was applied in the beginning of each experiment.

## O.O.O.O=C(O)c1ccc(CCN(CCc2ccccc2OCc2ccc(-c3ccc(C(F)(F)F)cc3)cc2Cl)[C@H]2CCCc3nc(C(=O)O)ccc32)cc1.O=C(O)c1ccc(CCN(CCc2ccccc2OCc2ccc(-c3ccc(C(F)(F)F)cc3)cc2Cl)[C@H]2CCCc3nc(C(=O)O)ccc32)cc1 [Example 6e, (5S)—{[2-(4-Carboxyphenyl)ethyl][2-(2-{[3-chloro-4′-(trifluoromethyl)biphenyl-4-yl]methoxy}phenyl)-ethyl]amino}-5,6,7,8-tetrahydroquinoline-2-carboxylic Acid Sesquihydrate]
Time 0, Sesquihydrate
  PAP(mean): 37.5 mmHg
Time 10, Sesquihydrate
  BP (mean): 108 mmHg and 119 mmHg
  PAP(mean): 42.0 mmHg and 37.3 mmHg and 38.6 mmHg
Time 20
  BP (mean): 99 mmHg
Time 20, Sesquihydrate
  BP (mean): 109 mmHg and 118 mmHg
  PAP(mean): 41.4 mmHg and 37.4 mmHg and 39.8 mmHg
Time 30
  BP (mean): 100 mmHg
Time 30, Sesquihydrate
  BP (mean): 107 mmHg and 118 mmHg
  PAP(mean): 41.4 mmHg and 36.8 mmHg and 41.2 mmHg
Time 40
  BP (mean): 100 mmHg
Time 40, Sesquihydrate
  BP (mean): 109 mmHg and 118 mmHg
  PAP(mean): 41.0 mmHg and 37.4 mmHg and 41.3 mmHg
Time 50, Sesquihydrate
  BP (mean): 101 mmHg and 114 mmHg and 119 mmHg
  PAP(mean): 40.9 mmHg and 38.1 mmHg and 40.8 mmHg
Time 60
  BP (mean): 102 mmHg
Time 60, Sesquihydrate
  BP (mean): 116 mmHg and 118 mmHg
  PAP(mean): 40.4 mmHg and 39.5 mmHg and 40.7 mmHg
Time 70
  BP (mean): 99 mmHg
Time 70, Sesquihydrate
  BP (mean): 111 mmHg and 117 mmHg
  PAP(mean): 40.7 mmHg and 38.7 mmHg and 39.6 mmHg
Time 80, Sesquihydrate
  BP (mean): 101 mmHg and 112 mmHg and 116 mmHg
  PAP(mean): 36.5 mmHg and 37.6 mmHg and 35.4 mmHg
Time 90, Sesquihydrate
  BP (mean): 101 mmHg and 114 mmHg and 115 mmHg
  PAP(mean): 34.3 mmHg and 36.4 mmHg and 30.8 mmHg
Time 100, Sesquihydrate
  BP (mean): 101 mmHg and 114 mmHg and 115 mmHg
  PAP(mean): 32.3 mmHg and 35.7 mmHg and 28.6 mmHg
Time 110, Sesquihydrate
  BP (mean): 99 mmHg and 120 mmHg and 114 mmHg
  PAP(mean): 30.8 mmHg and 35.0 mmHg and 27.5 mmHg
Time 120
  BP (mean): 99 mmHg
Time 120, Sesquihydrate
  BP (mean): 121 mmHg and 114 mmHg
  PAP(mean): 30.3 mmHg and 29.0 mmHg and 26.6 mmHg
Time 130
  BP (mean): 100 mmHg
Time 130, Sesquihydrate
  BP (mean): 122 mmHg and 114 mmHg
  PAP(mean): 29.0 mmHg and 30.3 mmHg and 26.9 mmHg
Time 140, Sesquihydrate
  BP (mean): 101 mmHg and 121 mmHg and 115 mmHg
  PAP(mean): 28.0 mmHg and 28.3 mmHg and 25.1 mmHg
Time 150
  BP (mean): 99 mmHg
Time 150, Sesquihydrate
  BP (mean): 119 mmHg and 115 mmHg
  PAP(mean): 25.8 mmHg and 30.8 mmHg and 25.3 mmHg
Time 160
  BP (mean): 99 mmHg
Time 160, Sesquihydrate
  BP (mean): 123 mmHg and 114 mmHg
  PAP(mean): 25.1 mmHg and 30.8 mmHg and 23.9 mmHg
Time 170
  BP (mean): 98 mmHg
Time 170, Sesquihydrate
  BP (mean): 116 mmHg and 113 mmHg
  PAP(mean): 25.5 mmHg and 30.6 mmHg and 24.6 mmHg
Time 180
  BP (mean): 99 mmHg
Time 180, Sesquihydrate
  BP (mean): 117 mmHg and 116 mmHg
  PAP(mean): 25.0 mmHg and 30.8 mmHg and 24.2 mmHg
Time 190
  BP (mean): 97 mmHg
Time 190, Sesquihydrate
  BP (mean): 123 mmHg and 114 mmHg
  PAP(mean): 24.3 mmHg and 32.9 mmHg and 23.6 mmHg
Time 200
  BP (mean): 97 mmHg
Time 200, Sesquihydrate
  BP (mean): 119 mmHg and 114 mmHg
  PAP(mean): 24.0 mmHg and 31.5 mmHg and 23.6 mmHg
Time 210
  BP (mean): 97 mmHg
Time 210, Sesquihydrate
  BP (mean): 119 mmHg and 112 mmHg
  PAP(mean): 24.3 mmHg and 31.0 mmHg and 23.5 mmHg
Time 220
  BP (mean): 97 mmHg
Time 220, Sesquihydrate
  BP (mean): 118 mmHg and 111 mmHg
  PAP(mean): 24.2 mmHg and 31.3 mmHg and 22.9 mmHg
Time 230
  BP (mean): 96 mmHg
Time 230, Sesquihydrate
  BP (mean): 116 mmHg and 112 mmHg
  PAP(mean): 24.0 mmHg and 31.5 mmHg and 23.5 mmHg
Time 240
  BP (mean): 99 mmHg
Time 240, Sesquihydrate
  BP (mean): 115 mmHg and 109 mmHg
  PAP(mean): 24.5 mmHg and 29.8 mmHg and 22.6 mmHg
Time 250, Sesquihydrate
  BP (mean): 97 mmHg and 111 mmHg and 110 mmHg
